Results reported in the supplement of paper PMC10849652.
Some of the results follow.

By UniProt entry, the sequences of proteins in these tests, tags left out. Where a name states a change or a piece, a line headed by the entry shows the natural chain unless it says otherwise.
UniProt O95139, whole entry, looked up: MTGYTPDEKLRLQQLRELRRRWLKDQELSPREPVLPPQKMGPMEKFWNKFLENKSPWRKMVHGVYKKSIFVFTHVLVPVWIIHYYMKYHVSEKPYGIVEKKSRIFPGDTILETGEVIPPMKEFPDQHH
UniProt P54920: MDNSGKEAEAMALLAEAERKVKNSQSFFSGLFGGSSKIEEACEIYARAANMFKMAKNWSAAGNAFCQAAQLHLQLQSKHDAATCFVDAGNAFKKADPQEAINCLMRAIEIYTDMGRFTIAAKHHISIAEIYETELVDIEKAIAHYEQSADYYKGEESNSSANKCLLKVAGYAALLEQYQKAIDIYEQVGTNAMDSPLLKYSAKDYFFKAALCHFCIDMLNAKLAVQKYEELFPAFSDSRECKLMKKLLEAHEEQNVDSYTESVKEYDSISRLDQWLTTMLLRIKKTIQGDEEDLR
UniProt Q9Y2A7: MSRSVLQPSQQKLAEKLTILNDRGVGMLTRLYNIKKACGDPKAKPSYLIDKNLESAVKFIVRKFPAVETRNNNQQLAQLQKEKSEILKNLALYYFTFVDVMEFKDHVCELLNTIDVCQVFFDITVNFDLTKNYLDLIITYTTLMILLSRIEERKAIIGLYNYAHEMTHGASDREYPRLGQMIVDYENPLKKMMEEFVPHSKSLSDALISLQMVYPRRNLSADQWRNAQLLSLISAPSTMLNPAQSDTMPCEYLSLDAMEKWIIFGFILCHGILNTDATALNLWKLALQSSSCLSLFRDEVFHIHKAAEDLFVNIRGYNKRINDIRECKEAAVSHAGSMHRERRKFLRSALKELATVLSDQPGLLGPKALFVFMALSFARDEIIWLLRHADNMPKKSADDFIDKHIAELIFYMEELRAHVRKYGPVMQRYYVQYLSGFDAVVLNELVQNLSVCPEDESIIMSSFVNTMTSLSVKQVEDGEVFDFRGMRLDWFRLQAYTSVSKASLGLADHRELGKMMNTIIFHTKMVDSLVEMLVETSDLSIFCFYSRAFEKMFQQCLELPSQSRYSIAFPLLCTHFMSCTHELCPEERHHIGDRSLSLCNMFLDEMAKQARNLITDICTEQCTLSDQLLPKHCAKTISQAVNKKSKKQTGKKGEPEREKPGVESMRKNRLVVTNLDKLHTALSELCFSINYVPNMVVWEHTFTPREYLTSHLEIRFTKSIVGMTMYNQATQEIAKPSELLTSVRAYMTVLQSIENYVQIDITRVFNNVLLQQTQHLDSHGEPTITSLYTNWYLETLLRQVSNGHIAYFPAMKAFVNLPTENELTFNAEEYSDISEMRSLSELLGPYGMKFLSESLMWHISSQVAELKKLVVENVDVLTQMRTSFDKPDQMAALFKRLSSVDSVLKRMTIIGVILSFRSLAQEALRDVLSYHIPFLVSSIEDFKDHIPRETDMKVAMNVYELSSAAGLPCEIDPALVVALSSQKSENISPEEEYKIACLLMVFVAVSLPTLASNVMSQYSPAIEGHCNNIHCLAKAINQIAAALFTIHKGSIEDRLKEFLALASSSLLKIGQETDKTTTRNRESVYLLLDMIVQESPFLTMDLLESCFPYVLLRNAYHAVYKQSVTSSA
UniProt Q9UN36: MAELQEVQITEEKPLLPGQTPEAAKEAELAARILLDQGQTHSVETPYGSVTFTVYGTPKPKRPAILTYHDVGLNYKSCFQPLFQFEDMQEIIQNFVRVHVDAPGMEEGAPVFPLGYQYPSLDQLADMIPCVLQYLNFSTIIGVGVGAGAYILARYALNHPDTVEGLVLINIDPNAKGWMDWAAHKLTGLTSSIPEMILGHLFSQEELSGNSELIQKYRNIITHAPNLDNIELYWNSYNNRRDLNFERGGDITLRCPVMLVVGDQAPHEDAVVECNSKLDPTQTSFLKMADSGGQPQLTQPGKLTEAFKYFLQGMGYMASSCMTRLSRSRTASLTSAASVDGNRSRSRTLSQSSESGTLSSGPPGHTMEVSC
UniProt Q13564: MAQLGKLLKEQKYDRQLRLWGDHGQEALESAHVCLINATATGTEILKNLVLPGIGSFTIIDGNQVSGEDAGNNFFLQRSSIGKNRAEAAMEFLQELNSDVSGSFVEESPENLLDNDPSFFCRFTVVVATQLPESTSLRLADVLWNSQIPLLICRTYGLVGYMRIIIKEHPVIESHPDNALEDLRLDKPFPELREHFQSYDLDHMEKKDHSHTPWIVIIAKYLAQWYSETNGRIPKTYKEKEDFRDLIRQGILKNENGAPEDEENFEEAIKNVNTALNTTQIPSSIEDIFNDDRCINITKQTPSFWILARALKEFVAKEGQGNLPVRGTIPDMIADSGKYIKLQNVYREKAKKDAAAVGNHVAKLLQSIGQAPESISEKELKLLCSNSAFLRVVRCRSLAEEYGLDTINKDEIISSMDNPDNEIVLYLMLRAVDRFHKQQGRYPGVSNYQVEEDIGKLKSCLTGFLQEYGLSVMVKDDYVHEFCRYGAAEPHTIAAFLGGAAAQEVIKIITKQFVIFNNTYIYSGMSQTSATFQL
UniProt Q15843, whole entry, looked up: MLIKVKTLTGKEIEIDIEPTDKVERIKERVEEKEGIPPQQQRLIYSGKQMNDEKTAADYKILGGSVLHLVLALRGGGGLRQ
UniProt Q8NEY1: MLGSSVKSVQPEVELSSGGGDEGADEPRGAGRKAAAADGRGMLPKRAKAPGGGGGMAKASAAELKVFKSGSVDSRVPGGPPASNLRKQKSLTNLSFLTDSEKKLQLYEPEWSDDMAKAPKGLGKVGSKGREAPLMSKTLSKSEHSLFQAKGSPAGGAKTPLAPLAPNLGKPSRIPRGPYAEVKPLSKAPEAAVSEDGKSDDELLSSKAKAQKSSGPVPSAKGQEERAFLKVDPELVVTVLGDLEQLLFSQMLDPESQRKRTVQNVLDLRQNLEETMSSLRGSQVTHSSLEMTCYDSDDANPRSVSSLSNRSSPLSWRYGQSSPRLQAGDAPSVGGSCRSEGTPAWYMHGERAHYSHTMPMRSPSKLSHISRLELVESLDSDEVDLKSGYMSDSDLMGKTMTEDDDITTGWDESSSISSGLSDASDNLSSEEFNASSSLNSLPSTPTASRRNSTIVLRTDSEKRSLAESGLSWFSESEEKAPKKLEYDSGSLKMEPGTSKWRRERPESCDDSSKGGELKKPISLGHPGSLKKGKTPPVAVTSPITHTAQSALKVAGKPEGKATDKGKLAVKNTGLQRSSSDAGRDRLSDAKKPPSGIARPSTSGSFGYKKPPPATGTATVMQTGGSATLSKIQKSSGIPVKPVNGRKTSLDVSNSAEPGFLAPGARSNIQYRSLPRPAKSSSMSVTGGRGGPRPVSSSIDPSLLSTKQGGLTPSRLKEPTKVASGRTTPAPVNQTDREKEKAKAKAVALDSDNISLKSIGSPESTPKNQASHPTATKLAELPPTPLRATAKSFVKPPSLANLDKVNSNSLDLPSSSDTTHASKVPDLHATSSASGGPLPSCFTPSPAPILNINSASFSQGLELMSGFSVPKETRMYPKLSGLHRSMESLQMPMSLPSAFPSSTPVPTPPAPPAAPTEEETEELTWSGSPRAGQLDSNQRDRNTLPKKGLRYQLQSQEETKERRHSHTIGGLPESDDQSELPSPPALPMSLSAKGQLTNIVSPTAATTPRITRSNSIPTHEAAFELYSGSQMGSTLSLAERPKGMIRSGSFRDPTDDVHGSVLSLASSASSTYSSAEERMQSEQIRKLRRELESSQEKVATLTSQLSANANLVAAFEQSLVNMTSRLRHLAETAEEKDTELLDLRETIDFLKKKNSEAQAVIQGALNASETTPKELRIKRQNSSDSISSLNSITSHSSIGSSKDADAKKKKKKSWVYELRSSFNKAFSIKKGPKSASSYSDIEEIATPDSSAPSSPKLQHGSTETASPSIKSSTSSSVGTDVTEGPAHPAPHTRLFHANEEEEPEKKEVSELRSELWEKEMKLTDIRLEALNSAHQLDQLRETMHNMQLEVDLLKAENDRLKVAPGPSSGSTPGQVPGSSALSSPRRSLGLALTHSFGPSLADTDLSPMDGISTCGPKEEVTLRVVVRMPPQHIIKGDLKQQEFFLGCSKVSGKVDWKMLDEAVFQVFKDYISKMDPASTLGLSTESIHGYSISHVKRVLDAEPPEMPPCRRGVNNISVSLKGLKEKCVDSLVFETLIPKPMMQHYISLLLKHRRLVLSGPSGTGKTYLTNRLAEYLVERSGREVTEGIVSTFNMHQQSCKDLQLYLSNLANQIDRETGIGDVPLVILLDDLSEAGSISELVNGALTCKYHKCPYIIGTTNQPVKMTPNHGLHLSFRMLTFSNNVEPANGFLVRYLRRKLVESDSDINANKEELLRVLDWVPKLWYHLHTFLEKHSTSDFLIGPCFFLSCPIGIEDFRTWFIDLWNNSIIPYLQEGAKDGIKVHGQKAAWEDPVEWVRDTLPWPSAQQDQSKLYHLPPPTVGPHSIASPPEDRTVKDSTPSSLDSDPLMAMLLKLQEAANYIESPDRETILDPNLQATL
UniProt O95182, whole entry, looked up: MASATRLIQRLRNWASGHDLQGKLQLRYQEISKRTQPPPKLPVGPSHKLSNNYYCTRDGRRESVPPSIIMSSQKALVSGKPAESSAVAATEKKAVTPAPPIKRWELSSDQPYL
UniProt P19404, whole entry, looked up: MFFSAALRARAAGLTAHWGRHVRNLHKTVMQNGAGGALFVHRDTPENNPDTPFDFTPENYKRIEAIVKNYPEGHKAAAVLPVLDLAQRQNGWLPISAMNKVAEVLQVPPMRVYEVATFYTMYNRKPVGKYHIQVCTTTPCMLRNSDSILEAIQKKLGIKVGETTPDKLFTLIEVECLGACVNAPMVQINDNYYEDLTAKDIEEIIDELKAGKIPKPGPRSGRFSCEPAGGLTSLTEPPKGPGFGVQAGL
UniProt Q7L592: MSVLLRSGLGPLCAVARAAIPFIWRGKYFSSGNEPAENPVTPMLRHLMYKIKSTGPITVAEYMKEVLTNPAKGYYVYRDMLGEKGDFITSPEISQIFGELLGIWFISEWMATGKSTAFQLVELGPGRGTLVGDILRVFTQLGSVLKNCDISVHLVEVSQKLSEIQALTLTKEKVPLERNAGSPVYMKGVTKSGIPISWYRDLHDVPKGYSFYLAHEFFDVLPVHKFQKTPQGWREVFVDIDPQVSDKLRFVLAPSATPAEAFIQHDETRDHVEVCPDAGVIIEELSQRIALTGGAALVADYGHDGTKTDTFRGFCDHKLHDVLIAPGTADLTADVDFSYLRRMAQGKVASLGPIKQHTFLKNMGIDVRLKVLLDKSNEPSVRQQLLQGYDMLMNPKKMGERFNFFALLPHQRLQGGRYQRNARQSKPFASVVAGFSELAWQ
UniProt P56556, whole entry, looked up: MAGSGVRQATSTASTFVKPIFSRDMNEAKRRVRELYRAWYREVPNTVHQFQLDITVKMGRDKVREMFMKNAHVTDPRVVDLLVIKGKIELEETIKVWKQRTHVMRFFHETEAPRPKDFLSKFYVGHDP
UniProt O00217, whole entry, looked up: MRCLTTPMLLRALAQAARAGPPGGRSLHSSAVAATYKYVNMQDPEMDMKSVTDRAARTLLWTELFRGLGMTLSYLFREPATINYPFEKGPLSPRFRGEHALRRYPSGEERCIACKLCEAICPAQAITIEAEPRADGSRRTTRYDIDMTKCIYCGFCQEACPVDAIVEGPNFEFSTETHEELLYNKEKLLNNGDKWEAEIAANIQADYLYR
UniProt P12036: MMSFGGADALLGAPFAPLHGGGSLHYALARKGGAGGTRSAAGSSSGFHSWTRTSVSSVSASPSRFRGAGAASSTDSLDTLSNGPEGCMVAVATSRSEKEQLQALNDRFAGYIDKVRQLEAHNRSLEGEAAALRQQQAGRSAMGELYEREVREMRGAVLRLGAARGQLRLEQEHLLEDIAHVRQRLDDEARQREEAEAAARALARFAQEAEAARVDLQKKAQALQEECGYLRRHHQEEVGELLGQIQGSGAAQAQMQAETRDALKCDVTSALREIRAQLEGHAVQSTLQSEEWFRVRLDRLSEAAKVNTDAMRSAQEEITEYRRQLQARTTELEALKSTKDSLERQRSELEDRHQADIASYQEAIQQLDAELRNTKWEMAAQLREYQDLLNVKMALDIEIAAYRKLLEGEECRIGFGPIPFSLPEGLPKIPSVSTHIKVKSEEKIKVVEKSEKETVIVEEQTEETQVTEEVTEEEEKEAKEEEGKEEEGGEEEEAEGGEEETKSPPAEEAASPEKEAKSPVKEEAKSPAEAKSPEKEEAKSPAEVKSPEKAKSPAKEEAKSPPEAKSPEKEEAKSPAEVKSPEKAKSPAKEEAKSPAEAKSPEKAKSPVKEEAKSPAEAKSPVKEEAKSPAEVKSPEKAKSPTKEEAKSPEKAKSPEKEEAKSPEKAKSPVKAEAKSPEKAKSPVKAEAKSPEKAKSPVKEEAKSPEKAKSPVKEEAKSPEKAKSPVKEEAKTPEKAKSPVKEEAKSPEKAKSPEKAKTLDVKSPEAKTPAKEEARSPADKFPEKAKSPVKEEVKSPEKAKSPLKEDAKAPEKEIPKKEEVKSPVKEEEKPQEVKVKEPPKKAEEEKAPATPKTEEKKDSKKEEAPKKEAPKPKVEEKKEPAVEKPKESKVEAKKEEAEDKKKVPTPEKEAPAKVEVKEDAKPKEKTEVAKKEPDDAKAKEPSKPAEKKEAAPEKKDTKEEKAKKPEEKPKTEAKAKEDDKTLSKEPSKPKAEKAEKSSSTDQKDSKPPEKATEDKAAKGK

What was measured:
Assay in all cases: log2 fold change, soluble protein after heating vs DMSO (PISA); higher = thermal stabilisation; K562 cells, 10 uM, 30 min; active = over 0.2 and 3.5 SD of the protein, either way, in both replicates (recomputed)
[1] = compound: CS(=O)(=O)c1ccc(-c2cnc(N)c(C(=O)Nc3ccccc3)n2)cc1
Method in brief: (§1)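 K562 cells at 2×10^6 cells/mL were treated for 30 min with 10 μM compound, and aliquots were heated for 3 min over 48°C-58°C before pooling. Extraction used PBS with 0.5% NP-40 at 4°C, and soluble protein was the supernatant after 21,000xg for 90 min, measured by TMTpro 16plex LC-MS/MS with channel sums equalised. Thermal stability values, relative to control samples and from duplicates, are log2 fold changes.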

[2] = compound: C[C@@H](Oc1cc(-c2cnn(C3CCNCC3)c2)cnc1N)c1c(Cl)ccc(F)c1Cl [crizotinib]
Method in brief: as §1

[3] = compound: C[C@@H]1COCCN1C2=NC(=NC(=C2)C3(CC3)S(=O)(=O)C)C4=C5C=CNC5=CC=C4
Method in brief: as §1

[4] = compound: C[C@H](C1=CC=C(C=C1)C(=O)NC2=C3C=CNC3=NC=C2)N
Method in brief: as §1

[5] = compound: C[C@H](Nc1ncnc2nc[nH]c12)c1cc2cccc(Cl)c2c(=O)n1-c1ccccc1 [duvelisib]
Method in brief: as §1

[6] = compound: Cc1cc(Nc2cc(CN3CCOCC3)c3nc(C)c(Cc4ccc(Cl)cc4F)n3n2)n[nH]1 [gandotinib]
Method in brief: as §1

[7] = compound: Cc1cc(Nc2cc(N3CCN(C)CC3)nc(Sc3ccc(NC(=O)C4CC4)cc3)n2)n[nH]1 [tozasertib]
Method in brief: as §1

[8] = compound: Cc1cc(SCc2sc(-c3ccc(C(F)(F)F)cc3)nc2C)ccc1OCC(=O)O
Method in brief: as §1

[9] = compound: Cc1ccc(-n2nc(C(C)(C)C)cc2NC(=O)Nc2ccc(OCCN3CCOCC3)c3ccccc23)cc1 [doramapimod]
Method in brief: as §1

[10] = compound: Cc1ccc(C(=O)N(CCCN)[C@@H](c2nc3cc(Cl)ccc3c(=O)n2Cc2ccccc2)C(C)C)cc1 [ispinesib]
Method in brief: as §1

[11] = compound: Cc1ccc(NC(=O)c2ccc(CN3CC[C@H](N(C)C)C3)c(C(F)(F)F)c2)cc1Nc1nccc(-c2cncnc2)n1 [bafetinib]
Method in brief: as §1

[12] = compound: Cc1cccc(CC(=O)N2CCc3c2ccc(-c2cn(C)c4ncnc(N)c24)c3F)n1
Method in brief: as §1

[13] = compound: Cc1cn(-c2cc(NC(=O)c3ccc(C)c(Nc4nccc(-c5cccnc5)n4)c3)cc(C(F)(F)F)c2)cn1 [nilotinib]
Method in brief: as §1

[14] = compound: Cc1nc(Nc2n[nH]c3c2CN(C(=O)N[C@H](CN(C)C)c2ccccc2)C3(C)C)c2sccc2n1
Method in brief: as §1

[15] = compound: Cc1nc(Nc2ncc(C(=O)Nc3c(C)cccc3Cl)s2)cc(N2CCN(CCO)CC2)n1 [dasatinib]
Method in brief: as §1

[16] = compound: Cc1ncc(-c2ccnc(Nc3ccc(S(C)(=O)=O)cc3)n2)n1C(C)C
Method in brief: as §1

[17] = compound: Cn1cc(-c2ccc3c(c2)CCN3C(=O)Cc2cccc(C(F)(F)F)c2)c2c(N)ncnc21
Method in brief: as §1

[18] = compound: Cn1cc(-c2ccc3nnc(C(F)(F)c4ccc5ncccc5c4)n3n2)cn1
Method in brief: as §1

[19] = compound: Cn1cncc1[C@@](N)(c1ccc(Cl)cc1)c1ccc2c(c1)c(-c1cccc(Cl)c1)cc(=O)n2C [tipifarnib]
Method in brief: as §1

[20] = compound: FC(F)(F)c1ccc(/C=C/c2nc(COc3ccc(CCCCn4ccnn4)cc3)co2)cc1 [mubritinib]
Method in brief: as §1

| Target | log2 fold change [1] | log2 fold change [2] | log2 fold change [3] | log2 fold change [4] | log2 fold change [5] | log2 fold change [6] | log2 fold change [7] | log2 fold change [8] | log2 fold change [9] | log2 fold change [10] | log2 fold change [11] | log2 fold change [12] | log2 fold change [13] | log2 fold change [14] | log2 fold change [15] | log2 fold change [16] | log2 fold change [17] | log2 fold change [18] | log2 fold change [19] | log2 fold change [20] |
| --- | --- | --- | --- | --- | --- | --- | --- | --- | --- | --- | --- | --- | --- | --- | --- | --- | --- | --- | --- | --- |
| NDUFB6 (UniProt O95139) | inactive: 0.021 | inactive: 0.024 | inactive: -0.056 | inactive: -0.094 | inactive: 0.026 | inactive: 0.035 | inactive: -0.003 | inactive: -0.1 | inactive: -0.033 | inactive: -0.054 | inactive: -0.132 | inactive: -0.018 | inactive: 0.027 | inactive: -0.029 | inactive: 0.088 | inactive: -0.004 | inactive: -0.059 | inactive: -0.029 | inactive: 0.162 | inactive: 0 |
| NAPA (UniProt P54920) | inactive: -0.033 | inactive: 0.007 | inactive: 0.025 | inactive: -0.056 | inactive: 0.046 | inactive: -0.055 | inactive: 0.031 | inactive: 0.003 | inactive: -0.015 | inactive: 0.137 | inactive: -0.009 | inactive: 0.022 | inactive: 0.002 | inactive: -0.044 | inactive: -0.018 | inactive: 0.041 | inactive: 0.039 | inactive: 0 | inactive: -0.012 | inactive: 0.025 |
| NCKAP1 isoform 2 (UniProt Q9Y2A7) | inactive: -0.021 | inactive: -0.071 | inactive: 0 | inactive: -0.08 |  | inactive: -0.093 |  | inactive: 0.031 | inactive: -0.027 | inactive: 0.034 | inactive: -0.028 | inactive: 0.08 | inactive: -0.016 | inactive: -0.045 | inactive: -0.096 | inactive: -0.04 | inactive: 0.04 | inactive: -0.004 | inactive: -0.005 | inactive: 0.002 |
| NAMPT (UniProt C9JF35) | inactive: 0.02 | inactive: -0.01 | inactive: 0.056 | inactive: 0.198 | inactive: 0.012 |  | inactive: -0.07 | inactive: -0.129 | inactive: 0.139 | inactive: -0.025 | inactive: -0.029 |  | inactive: -0.237 | inactive: -0.263 | inactive: -0.026 | inactive: -0.051 | inactive: 0.037 | inactive: 0.139 | inactive: 0.088 | inactive: 0.13 |
| NDRG2 (UniProt Q9UN36) | inactive: 0.037 | inactive: -0.068 | inactive: -0.01 | inactive: 0.019 | inactive: -0.013 | inactive: -0.011 | inactive: 0.017 | inactive: 0.065 | inactive: -0.067 | inactive: 0.087 | inactive: -0.05 | inactive: 0.022 | inactive: -0.005 | inactive: 0.031 | inactive: -0.057 | inactive: 0 | inactive: -0.006 | inactive: 0.002 | inactive: -0.059 | inactive: 0.034 |
| MYO9B (UniProt Q13459) | inactive: 0.078 | inactive: -0.078 | inactive: -0.039 | inactive: 0.228 | inactive: -0.037 | inactive: 0.05 | inactive: 0.013 | inactive: 0.042 | inactive: 0.127 | inactive: -0.135 | inactive: 0.127 | inactive: -0.066 | inactive: -0.069 | inactive: 0.004 | inactive: -0.033 | inactive: -0.007 | inactive: -0.17 | inactive: -0.048 | inactive: -0.068 | inactive: -0.031 |
| NAE1 (UniProt Q13564) | inactive: 0.015 | inactive: -0.135 | inactive: -0.002 | inactive: -0.015 | inactive: 0.02 | inactive: -0.059 | inactive: -0.055 | inactive: 0.043 | inactive: 0.052 | inactive: -0.041 | inactive: -0.006 | inactive: 0.039 | inactive: -0.066 | inactive: -0.025 | inactive: -0.065 | inactive: -0.019 | inactive: 0.056 | inactive: 0.007 | inactive: -0.054 | inactive: 0.14 |
| NEDD8 (UniProt Q15843) | inactive: 0.008 | inactive: 0.118 | inactive: 0.161 | inactive: 0.032 | inactive: -0.011 | inactive: 0.074 | inactive: 0.043 | inactive: 0.016 | inactive: 0.022 | inactive: 0.094 | inactive: -0.029 | inactive: -0.118 | inactive: 0.053 | inactive: 0.009 | inactive: 0.091 | inactive: -0.034 | inactive: 0.131 | inactive: 0.064 | inactive: -0.051 | inactive: 0.027 |
| NAV1 (UniProt Q8NEY1) | inactive: 0.104 | inactive: -0.269 | inactive: -0.066 | inactive: 0.222 | inactive: 0.058 | inactive: 0.129 | inactive: -0.183 | inactive: -0.004 | inactive: 0.097 | inactive: -0.352 |  | inactive: 0.034 | inactive: 0.009 | inactive: -0.236 | inactive: -0.115 | inactive: 0.065 | inactive: -0.08 | inactive: -0.096 | inactive: 0.13 | inactive: -0.239 |
| NDUFA7 (UniProt O95182) | inactive: -0.004 | inactive: -0.103 | inactive: 0.02 | inactive: 0.039 |  | inactive: -0.12 |  | inactive: 0.07 | inactive: -0.041 | inactive: -0.118 | inactive: -0.056 | inactive: 0.124 | inactive: 0.016 | inactive: -0.025 | inactive: -0.145 | inactive: -0.059 | inactive: -0.005 | inactive: -0.061 | inactive: 0.002 | active: 0.247 |
| NDUFV2 (UniProt P19404) | inactive: -0.022 | inactive: -0.047 | inactive: 0.036 | inactive: -0.03 | inactive: -0.014 | inactive: 0.012 | inactive: -0.057 | inactive: 0.007 | inactive: 0.017 | inactive: -0.016 | inactive: -0.035 | inactive: -0.024 | inactive: 0.039 | inactive: -0.026 | inactive: -0.017 | inactive: -0.047 | inactive: 0.029 | inactive: 0.028 | inactive: 0.087 | inactive: 0.052 |
| NACA4P (UniProt Q9BZK3) | inactive: -0.046 | inactive: -0.271 | inactive: -0.251 | inactive: 0.1 | inactive: -0.113 |  | inactive: -0.227 | inactive: 0.073 | inactive: 0.005 | inactive: -0.033 | inactive: 0.048 |  | inactive: 0.094 | inactive: 0.082 | inactive: -0.042 | inactive: 0 | inactive: -0.083 | inactive: -0.111 |  | inactive: 0.046 |
| NDUFAF7 (UniProt Q7L592) | inactive: 0.011 | inactive: -0.156 | inactive: 0.033 | inactive: -0.007 |  | inactive: -0.231 | inactive: -0.107 |  | inactive: -0.046 | inactive: -0.038 | inactive: 0.001 | inactive: 0.05 | inactive: -0.012 | inactive: -0.023 |  | inactive: -0.02 | inactive: 0.203 | inactive: 0.02 | inactive: -0.08 | inactive: -0.105 |
| NDUFA6 (UniProt P56556) | inactive: 0.012 | inactive: -0.044 | inactive: 0.172 | inactive: -0.078 |  | inactive: -0.22 |  | inactive: 0.098 | inactive: -0.004 | inactive: 0 | inactive: 0.128 | inactive: 0.301 | inactive: -0.151 | inactive: 0.021 | inactive: -0.088 | inactive: 0.027 | inactive: 0.089 | inactive: 0.081 | inactive: -0.173 | inactive: 0.184 |
| NDUFS8 (UniProt O00217) | inactive: 0.021 | inactive: -0.182 | inactive: 0.143 | inactive: -0.027 |  | inactive: -0.168 |  | inactive: 0.021 | inactive: -0.043 | inactive: -0.158 | inactive: -0.055 | inactive: 0.047 | inactive: -0.036 | inactive: -0.002 | inactive: -0.1 | inactive: -0.047 | inactive: 0.1 | inactive: 0.055 | inactive: -0.053 | inactive: 0.111 |
| NDST1 (UniProt P52848) | inactive: 0.007 | inactive: 0.058 | inactive: 0.054 | inactive: 0.053 | inactive: -0.014 | inactive: 0.145 | inactive: -0.039 | inactive: -0.097 | inactive: -0.035 |  | inactive: 0.002 | inactive: 0.034 | inactive: 0.032 | inactive: -0.019 | inactive: 0.034 | inactive: -0.028 | inactive: -0.123 |  | inactive: 0.026 | inactive: -0.065 |
| NEFH (UniProt P12036) | inactive: 0.021 | inactive: 0.202 | inactive: -0.279 | inactive: 0.161 | inactive: -0.213 | inactive: 0.156 | inactive: 0.334 | inactive: 0.085 | inactive: 0.106 | inactive: -0.141 | inactive: -0.117 | inactive: -0.007 | inactive: 0.1 | inactive: -0.076 | inactive: 0.302 | inactive: -0.023 | inactive: -0.417 | inactive: -0.084 | inactive: 0.185 | inactive: -0.417 |

Reformatted as comma-separated lines: part of the list above
Target,log2 fold change [1],log2 fold change [2],log2 fold change [3],log2 fold change [4],log2 fold change [5],log2 fold change [6],log2 fold change [7],log2 fold change [8],log2 fold change [9],log2 fold change [10],log2 fold change [11],log2 fold change [12],log2 fold change [13],log2 fold change [14],log2 fold change [15],log2 fold change [16],log2 fold change [17],log2 fold change [18],log2 fold change [19],log2 fold change [20]
NDUFA7 (UniProt O95182),inactive: -0.004,inactive: -0.103,inactive: 0.02,inactive: 0.039,,inactive: -0.12,,inactive: 0.07,inactive: -0.041,inactive: -0.118,inactive: -0.056,inactive: 0.124,inactive: 0.016,inactive: -0.025,inactive: -0.145,inactive: -0.059,inactive: -0.005,inactive: -0.061,inactive: 0.002,active: 0.247
NDUFV2 (UniProt P19404),inactive: -0.022,inactive: -0.047,inactive: 0.036,inactive: -0.03,inactive: -0.014,inactive: 0.012,inactive: -0.057,inactive: 0.007,inactive: 0.017,inactive: -0.016,inactive: -0.035,inactive: -0.024,inactive: 0.039,inactive: -0.026,inactive: -0.017,inactive: -0.047,inactive: 0.029,inactive: 0.028,inactive: 0.087,inactive: 0.052
NACA4P (UniProt Q9BZK3),inactive: -0.046,inactive: -0.271,inactive: -0.251,inactive: 0.1,inactive: -0.113,,inactive: -0.227,inactive: 0.073,inactive: 0.005,inactive: -0.033,inactive: 0.048,,inactive: 0.094,inactive: 0.082,inactive: -0.042,inactive: 0,inactive: -0.083,inactive: -0.111,,inactive: 0.046
